The assay concerns the target Protein arginine methyltransferase 5 (PRMT5), expressed from a transfected PRMT5 plasmid (UniProt O14744). Put plainly: affinity purification with mass spectrometry; PRMT5 plasmid transfected into HEK293 and Tu686 cells, 48 h; lysates precipitated with anti-PRMT5 beads; silver staining and mass spectrometry.

Sequences of proteins named here, by UniProt entry; tags and fusion partners are left off.
UniProt O14744: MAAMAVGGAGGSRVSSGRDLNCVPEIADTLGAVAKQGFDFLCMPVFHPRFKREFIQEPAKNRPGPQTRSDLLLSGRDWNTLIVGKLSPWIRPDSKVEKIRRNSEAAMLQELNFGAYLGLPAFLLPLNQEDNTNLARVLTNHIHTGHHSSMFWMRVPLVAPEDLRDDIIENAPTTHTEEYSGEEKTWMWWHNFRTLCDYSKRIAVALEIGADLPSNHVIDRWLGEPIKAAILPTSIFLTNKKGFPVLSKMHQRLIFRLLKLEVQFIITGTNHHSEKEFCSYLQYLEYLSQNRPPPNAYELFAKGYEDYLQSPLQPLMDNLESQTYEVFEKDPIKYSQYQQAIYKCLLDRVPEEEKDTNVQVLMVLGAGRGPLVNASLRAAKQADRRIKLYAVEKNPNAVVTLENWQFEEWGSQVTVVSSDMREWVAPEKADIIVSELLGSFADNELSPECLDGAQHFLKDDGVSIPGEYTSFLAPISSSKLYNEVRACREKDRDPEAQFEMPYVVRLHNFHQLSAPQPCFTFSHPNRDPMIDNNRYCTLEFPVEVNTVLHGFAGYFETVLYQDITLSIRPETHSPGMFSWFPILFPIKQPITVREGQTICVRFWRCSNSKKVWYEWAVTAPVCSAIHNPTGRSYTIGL

These are yes or no findings as the source states them, for the method shown. In cells and extracts the contact can be indirect. A yes stands for co-enrichment or nearness to the bait. Other partners may have been found.

B1: GTPase-activating protein-binding protein 2 (G3BP2), endogenous (protein, UniProt Q9UN86 1-482)
chain: MVMEKPSPLLVGREFVRQYYTLLNKAPEYLHRFYGRNSSYVHGGVDASGKPQEAVYGQNDIHHKVLSLNFSECHTKIRHVDAHATLSDGVVVQVMGLLSNSGQPERKFMQTFVLAPEGSVPNKFYVHNDMFRYEDEVFGDSEPELDEESEDEVEEEQEERQPSPEPVQENANSGYYEAHPVTNGIEEPLEESSHEPEPEPESETKTEELKPQVEEKNLEELEEKSTTPPPAEPVSLPQEPPKAFSWASVTSKNLPPSGTVSSSGIPPHVKAPVSQPRVEAKPEVQSQPPRVREQRPRERPGFPPRGPRPGRGDMEQNDSDNRRIIRYPDSHQLFVGNLPHDIDENELKEFFMSFGNVVELRINTKGVGGKLPNFGFVVFDDSEPVQRILIAKPIMFRGEVRLNVEEKKTRAARERETRGGGDDRRDIRRNDRGPGGPRGIVGGGMMRDRDGRGPPPRGGMAQKLGSGRGTGQMEGRFTGQRR
For B1, the binding entry is “binds”.
